This assay is described as follows: qHTS Assay for Modulators of Lamin A Splicing. The note with it: HeLa LMNA splicing GFP/RFP minigene ratio, 48 h. Summed up:
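S3 HeLa cells stably expressing lamin A-EGFP splicing minigene plus DsRed2, 600 cells/well, 48 h compound exposure at 37C. Laser-scanning cytometry; analysed as GFP (500-530 nm)/RFP (575-640 nm) total intensity ratio; 0.5% DMSO vehicle.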
In general terms: Quantitative high-throughput screening tests each substance at several concentrations.

The mark [1] stands for this setting: measured here: GFP splicing reporter channel.
[2] abbreviates: measured here: RFP viability control channel.

Among the data in PubChem BioAssay AID1487 (National Center for Advancing Translational Sciences (NCATS), 2009) are AC50 values, retold here.

Several values for one entry are separate records, joined by “and”; a condition that tells them apart may be missing. Equal values may be shown once. The list shows a part of the results. These are further read-outs of the screen, such as a control signal, another cell line or another target. No call is given for them. The list favours compounds with an active or inconclusive main result. The note in brackets gives the kind of curve behind each potency; many fits are weak.

Broadly, the AC50 is the concentration at which the activity in the assay is half-maximal.

In the case of `CCNc1ncc2nc(C)c(=O)n(Cc3cccs3)c2n1`, the AC50 under setting [1] was 6.31 µM [falling, partial curve, poor fit]. As to `CC1(C)CC(=O)C2=C(C1)N=C1SCCC(=O)N1C2c1ccccc1` (stereo not drawn), the AC50 under setting [1] was 5.62 µM [rising, single point].

`Cc1ccc(OCC(=O)NCC(=O)OCc2cc(=O)n3nc(C)sc3n2)cc1`: the AC50 reads like this: under setting [1], 7.08 µM [falling, partial curve, poor fit]; under setting [2], 0.0562 µM [falling, full curve].

Consider `Cc1cc(C(=O)CSc2nc3ccc(Cl)cc3[nH]2)c(C)n1C`, for which, under setting [1], the AC50 is 17.8 µM [rising, single point]. As to `Cc1cc(C)n(S(=O)(=O)/C=C/c2ccccc2)n1`, the AC50 under setting [2] is 5.62 µM [rising, single point]. Still for that read-out and setting: with `O=C(Nc1nc2nccc(-c3ccccc3)n2n1)c1ccc(F)cc1` the figure was 0.355 µM [falling, full curve].

In the case of `COc1ccc([N+](=O)[O-])cc1NC(=O)CCN1CCN(c2ccccc2OC)CC1`, the AC50 is, setting by setting: under setting [1], 22.4 µM [falling, single point]; under setting [2], 20 µM [falling, single point]. In the case of `Cc1ccc(S(=O)(=O)NC(CCc2ccccc2)CC(=O)C(C)(C)C)cc1` (stereo not drawn), the half-maximal activity concentration (AC50) was 35.5 µM [rising, single point] under setting [1] and 35.5 µM [rising, single point] under setting [2].

For `Cc1ccc2c(C)[nH]c(=O)cc2c1`, the AC50 under setting [2] is 20 µM [rising, single point]. With `O=C(CSc1cccc[n+]1[O-])c1ccc(-c2ccccc2)cc1`, the AC50 under setting [2] is 35.5 µM [rising, partial curve].

`CCn1cnc2cc(NCc3cccs3)ccc21`: under setting [1], the AC50 is 3.55 µM [falling, full curve]. With `CC(=O)NO`, the AC50 is 35.5 µM [falling, single point] under setting [1] and 0.794 µM [rising, single point] under setting [2]. As to `COc1ccccc1C1CC(=O)Nc2cc3c(cc21)OCCO3` (stereo not drawn), the AC50 under setting [2] is 0.631 µM [rising, full curve, poor fit]. As to `CCOc1ccccc1/C=N/OCC(=O)NCc1ccc(F)cc1`, the AC50 reads like this: under setting [1], 0.178 µM [falling, full curve, poor fit]; under setting [2], 0.0562 µM [falling, full curve]. For `CCN1C(=O)/C(=C2/Sc3ccc(OC)cc3N2C)SC1=Nc1cccc(O)c1`, the concentration at half-maximal activity (AC50) runs as follows: under setting [1], 25.1 µM [falling, single point]; under setting [2], 7.94 µM [falling, partial curve]. In the case of `COc1cc(O)c2c(=O)c(O)c(-c3ccc(O)c(O)c3)oc2c1`, the AC50 under setting [1] was 12.6 µM [rising, partial curve].

For `CN(C)S(=O)(=O)c1ccc(C(=O)Nc2ccnn2C2CCCCC2)cc1`, the AC50 under setting [2] is 14.1 µM [rising, partial curve]. Still for that read-out and setting: the value for `COc1ccc(NC(=O)C2CCN(c3nc(C)nc4c3CCC4)CC2)cc1` was 11.2 µM [rising, partial curve, poor fit]; that for `Cc1nc(Cc2nnc(SCc3nc(N)nc(Nc4ccccc4C)n3)o2)cs1` was 2.51 µM [falling, partial curve, poor fit].

`COC(=O)CNC(=S)NC(=O)c1ccc(C(C)(C)C)cc1`: the AC50 reads like this: under setting [1], 0.501 µM [falling, full curve, poor fit]; under setting [2], 0.447 µM [falling, full curve, poor fit]. Turning to `COc1ccccc1CNC(=O)c1ccc2nc(-c3ccccc3)c(-c3ccccc3)nc2c1`, the AC50 under setting [1] is 0.00501 µM [rising, full curve, poor fit] and the AC50 under setting [2] is 17.8 µM [rising, partial curve, poor fit]. For the compound `COc1ccc(C(NC(=O)/C=C/c2ccco2)c2ccc(OC)c(OC)c2)cc1` (stereo not drawn), the AC50 is, setting by setting: under setting [1], 1.12 µM [falling, partial curve]; under setting [2], 0.631 µM [falling, partial curve, poor fit].

Consider `Cc1nn(C)c2c1c(C(F)(F)F)cc(=O)n2Cc1cccc(Br)c1`, for which the AC50 under setting [2] is 5.01 µM [falling, partial curve]. Consider `O=C(Nc1ccc(OC(F)F)cc1)c1ncc(Cl)c(Cl)c1Cl`, for which the AC50 is 0.562 µM [rising, full curve, poor fit] under setting [1] and 14.1 µM [rising, partial curve] under setting [2].

`CC(/C=C/c1ccc2c(c1)OCO2)=N/NC(=O)C1COc2ccccc2O1` (stereo not drawn): the AC50 under setting [2] is 12.6 µM [rising, partial curve].

As for `O=C(/C=C/c1cccs1)NC(=S)NNC(=O)Cc1cccs1`, the AC50 under setting [2] was 28.2 µM [rising, single point]. On the same count and under the same terms, the value for `Cc1cccc(N2CCN(C3(c4ccccc4)C(=O)c4ccccc4C3=O)CC2)c1C` was 12.6 µM [rising, single point]. Consider `Cc1ccc2onc(CC(=O)N(C)c3ccccc3)c2c1`, for which the half-maximal activity concentration (AC50) under setting [2] is 0.0112 µM [rising, full curve, poor fit]. On to `O=S(=O)(Nc1ccc2nc(-c3cccc(Cl)c3)oc2c1)c1ccccc1`, for which the AC50 was 35.5 µM [falling, single point] under setting [1] and 28.2 µM [falling, partial curve, poor fit] under setting [2].

With `CN(CC(=O)Nc1ccc(Cl)c(C(F)(F)F)c1)C(=O)/C=C/c1ccco1`, the AC50 runs as follows: under setting [1], 17.8 µM [rising, single point]; under setting [2], 22.4 µM [rising, single point]. As to `CCOC(=O)C1CCCc2c1[nH]c1ccc(Cl)cc21` (stereo not drawn), the AC50 under setting [2] is 3.16 µM [falling, single point].

Take `O=S(=O)(Nc1nccs1)c1ccc(Cl)cc1`: the AC50 under setting [2] was 0.0501 µM [falling, full curve, poor fit]. Consider `COc1cc(/C=N/n2c(-c3ccc4c(c3)NC(=O)CO4)csc2=Nc2cccc(C)c2)ccc1O`, for which the AC50 under setting [2] was 11.2 µM [rising, partial curve]. As for `O=C1NC(c2ccccn2)Nc2sc3c(c21)CCC3` (stereo not drawn), under setting [2], the AC50 is 12.6 µM [rising, partial curve]. For `O=C(Cn1ccc(C(F)(F)F)n1)Nc1ccc(S(=O)(=O)NCc2ccco2)cc1`, the AC50 under setting [1] was 10 µM [rising, partial curve, poor fit]. For `O=C(c1ccccc1)c1cc(Cl)ccc1N1C(=O)C=CC1=O`, the AC50 under setting [1] was 35.5 µM [falling, single point].

Take `CC(C)(C)N(NC(=O)OCc1ccccc1)C(=O)c1ccccc1`: under setting [1], the AC50 is 1 µM [rising, partial curve]. For the compound `COC(=O)c1cn(-c2ccccc2)c(=O)c2ccccc12`, under setting [2], the AC50 is 0.2 µM [falling, full curve, poor fit]. On the same count and under the same terms, with `O=C(c1ccco1)c1cn(CC(=O)N2CCCCC2)c2ccccc12` the figure was 28.2 µM [rising, single point]; with `CC(C)c1ccc(C2=C(O)c3ccccc3C(=O)C2=O)cc1`, 22.4 µM [rising, partial curve, poor fit].

Take `Cc1ccc(N2C(=O)NC(NC(=O)c3ccc(Cl)cc3)(C(F)(F)F)C2=O)cc1` (stereo not drawn): the AC50 was 10 µM [rising, partial curve] under setting [1] and 31.6 µM [rising, single point] under setting [2]. As to `CCOCCCn1c(SCC(=O)Nc2cc(C(C)(C)C)nn2-c2ccccc2)nc2ccccc2c1=O`, the AC50 under setting [2] is 10 µM [rising, partial curve, poor fit]. As to `C1CCCN(c2nc3nonc3nc2N2CCCCCC2)CC1`, the AC50 by setting is: under setting [1], 2.51 µM [rising, single point]; under setting [2], 4.47 µM [rising, single point]. Take `COc1ccccc1NS(=O)(=O)c1cc(NC(=O)c2cccs2)ccc1N1CCCCC1`: the AC50 under setting [1] is 10 µM [rising, partial curve, poor fit] and the AC50 under setting [2] was 12.6 µM [rising, partial curve].

Regarding `COc1ccc(Cn2c(-c3ccc(C)cc3)nc3c(c(=O)c4ccccc4n3C)c2=O)cc1`, the AC50 under setting [2] is 0.447 µM [rising, partial curve]. Regarding `CN1CCCN=C1COC(=O)C(O)(c1ccccc1)C1CCCCC1` (stereo not drawn), the AC50 is 1 µM [falling, single point] under setting [1]; 20 µM [falling, single point] and 3.55 µM [rising, single point] under setting [2].

In the case of `COc1ccc(CC(=O)NCc2ccc3c(c2)CCN3C(=O)c2ccc(Cl)cc2)cc1OC`, under setting [1], the concentration at half-maximal activity (AC50) is 8.91 µM [falling, partial curve, poor fit]. `COc1cccc(CNCC(O)(c2ccc(Cl)cc2)c2ccc(Cl)cc2)c1`: the AC50 was 22.4 µM [falling, single point] under setting [1] and 35.5 µM [falling, single point] under setting [2]. `Cc1cccc(C)c1NC(=O)C1(N(Cc2ccco2)C(=O)c2ccccn2)CCCC1`: the AC50 is, setting by setting: under setting [1], 35.5 µM [rising, single point]; under setting [2], 35.5 µM [rising, single point].

For `Cc1nc(SCC(=O)c2c(C)[nH]c3ccccc23)c2c(=O)n(C)c(=O)n(CC(C)C)c2n1`, the AC50 under setting [1] is 5.62 µM [rising, single point] and the AC50 under setting [2] is 3.55 µM [rising, single point]. In the case of `Cc1ccc(OCCN2C(=O)C(=O)c3cccc(C)c32)cc1`, the AC50 under setting [1] is 11.2 µM [falling, partial curve, poor fit]. For `COC(=O)NNC(=O)c1ccc(Cl)cc1Cl`, under setting [1], the concentration at half-maximal activity (AC50) is 31.6 µM [rising, single point]. In the case of `COc1ccc(N(Cc2cccs2)C(=O)Nc2ccccc2)cc1`, under setting [2], the AC50 was 31.6 µM [rising, single point]. `Cc1nc2cnc(OCc3ccccc3)nc2n(CCc2ccccc2)c1=O`: the AC50 by setting is: under setting [1], 22.4 µM [falling, single point]; under setting [2], 35.5 µM [falling, partial curve, poor fit]. For the compound `Fc1ccc(C(c2nnnn2Cc2ccccc2)N2CCSCC2)cc1` (stereo not drawn), the AC50 was 17.8 µM [rising, partial curve, poor fit] under setting [1] and 1 µM [rising, full curve, poor fit] under setting [2]. Take `[O-][n+]1ccccc1SSc1cccc[n+]1[O-]`: the concentration at half-maximal activity (AC50) under setting [1] was 1.78 µM [falling, full curve] and the AC50 under setting [2] is 0.112 µM [falling, full curve].
